# From the supplement of paper PMC8728848
# This is one part of the list.
# B1: HFR-3 (Triticum aestivum) (protein)
# chain: MKGLLLCALALAFAAVTTHAQLQSCPTRCGKQADGMECPNNLCCSKDGYCGLGVDYCSAGAGCQSGACYDNKICGAQANGTLCRNNHCCSSGGRCGYGREYCSNGCQGGPCWADLKCGHLDNGKLCPNNLCCSQYGYCGLGPEFCGTGCQNGACSTDKPCGNKANGAPCTNNYCCSQYGSCGLGKDYCGTGCQNGACN
# Legend:
# Assay in all cases: glycan array binding signal (z-score within array); higher = stronger binding
# Settings in all cases: glycan notation: IUPAC condensed, linker removed
# [1] = target: Neu5Ac(a2-3)Gal(b1-4)GlcNAc(b1-6)[Gal(b1-3)]GalNAc
# In short: (§1)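 Negative Z-scores can be read as non-binding. The Z-score is calculated within each array and then averaged across arrays of one protein sequence at different concentrations or buffers and across linkers. Arrays, 3228 in all, were curated from the Consortium for Functional Glycomics database and kept only where the protein sequence was available.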
# [2] = target: Neu5Ac(a2-3)Gal(b1-4)GlcNAc(b1-6)[Neu5Ac(a2-3)Gal(b1-3)]GalNAc
# In short: as §1
# [3] = target: Neu5Ac(a2-3)Gal(b1-4)GlcNAc6S
# In short: as §1
# [4] = target: Neu5Ac(a2-3)Gal(b1-4)[Fuc(a1-3)]GlcNAc
# In short: as §1
# [5] = target: Neu5Ac(a2-3)Gal(b1-4)[Fuc(a1-3)]GlcNAc(b1-2)Man
# In short: as §1
# [6] = target: Neu5Ac(a2-3)Gal(b1-4)[Fuc(a1-3)]GlcNAc(b1-3)Gal
# In short: as §1
# [7] = target: Neu5Ac(a2-3)Gal(b1-4)[Fuc(a1-3)]GlcNAc(b1-3)Gal(b1-4)GlcNAc
# In short: as §1
# [8] = target: Neu5Ac(a2-3)Gal(b1-4)[Fuc(a1-3)]GlcNAc(b1-3)Gal(b1-4)[Fuc(a1-3)]GlcNAc(b1-3)Gal(b1-4)[Fuc(a1-3)]GlcNAc
# In short: as §1
# [9] = target: Neu5Ac(a2-3)Gal(b1-4)[Fuc(a1-3)]GlcNAc(b1-3)GalNAc
# In short: as §1
# [10] = target: Neu5Ac(a2-3)Gal(b1-4)[Fuc(a1-3)]GlcNAc(b1-6)[Gal(b1-3)]GalNAc
# In short: as §1
# [11] = target: Neu5Ac(a2-3)Gal(b1-4)[Fuc(a1-3)]GlcNAc(b1-6)[Neu5Ac(a2-3)Gal(b1-3)]GalNAc
# In short: as §1
# [12] = target: Neu5Ac(a2-3)Gal(b1-4)[Fuc(a1-3)]GlcNAc6S
# In short: as §1
# [13] = target: Neu5Ac(a2-3)Gal6S(b1-4)GlcNAc
# In short: as §1
# [14] = target: Neu5Ac(a2-3)Gal6S(b1-4)[Fuc(a1-3)]GlcNAc
# In short: as §1
# Neu5Ac(a2-3)GalNAc = target: Neu5Ac(a2-3)GalNAc
# In short: as §1
# [15] = target: Neu5Ac(a2-3)GalNAc(b1-4)GlcNAc
# In short: as §1
# [16] = target: Neu5Ac(a2-3)[GalNAc(b1-4)]Gal(b1-4)Glc
# In short: as §1
# [17] = target: Neu5Ac(a2-3)[GalNAc(b1-4)]Gal(b1-4)GlcNAc
# In short: as §1
# [18] = target: Neu5Ac(a2-3)[GalNAc(b1-4)]Gal(b1-4)GlcNAc(b1-3)GalNAc
# In short: as §1
# [19] = target: Neu5Ac(a2-3)[Neu5Ac(a2-6)]GalNAc
# In short: as §1
# Neu5Ac(a2-6)Gal = target: Neu5Ac(a2-6)Gal
# In short: as §1
# [20] = target: Neu5Ac(a2-6)Gal(b1-3)GlcNAc(b1-3)[Gal(b1-4)GlcNAc(b1-6)]Gal(b1-4)Glc
# In short: as §1
# Neu5Ac(a2-6)Gal(b1-4)Glc = target: Neu5Ac(a2-6)Gal(b1-4)Glc
# In short: as §1
# [21] = target: Neu5Ac(a2-6)Gal(b1-4)GlcNAc
# In short: as §1
# [22] = target: Neu5Ac(a2-6)Gal(b1-4)GlcNAc(b1-2)Man
# In short: as §1
# [23] = target: Neu5Ac(a2-6)Gal(b1-4)GlcNAc(b1-2)Man(a1-3)Man(b1-4)GlcNAc(b1-4)GlcNAc
# In short: as §1
# [24] = target: Neu5Ac(a2-6)Gal(b1-4)GlcNAc(b1-2)Man(a1-3)[Gal(b1-4)GlcNAc(b1-2)Man(a1-6)]Man(b1-4)GlcNAc(b1-4)GlcNAc
# In short: as §1
# [25] = target: Neu5Ac(a2-6)Gal(b1-4)GlcNAc(b1-2)Man(a1-3)[GlcNAc(b1-2)Man(a1-6)]Man(b1-4)GlcNAc(b1-4)GlcNAc
# In short: as §1
# [26] = target: Neu5Ac(a2-6)Gal(b1-4)GlcNAc(b1-2)Man(a1-3)[GlcNAc(b1-4)][Neu5Ac(a2-6)Gal(b1-4)GlcNAc(b1-2)Man(a1-6)]Man(b1-4)GlcNAc(b1-4)GlcNAc
# In short: as §1
# [27] = target: Neu5Ac(a2-6)Gal(b1-4)GlcNAc(b1-2)Man(a1-3)[Man(a1-6)]Man(b1-4)GlcNAc(b1-4)GlcNAc
# In short: as §1
# [28] = target: Neu5Ac(a2-6)Gal(b1-4)GlcNAc(b1-2)Man(a1-3)[Neu5Ac(a2-3)Gal(b1-4)GlcNAc(b1-2)Man(a1-6)]Man(b1-4)GlcNAc(b1-4)GlcNAc
# In short: as §1
# [29] = target: Neu5Ac(a2-6)Gal(b1-4)GlcNAc(b1-2)Man(a1-3)[Neu5Ac(a2-6)Gal(b1-4)GlcNAc(b1-2)Man(a1-6)]Man(b1-4)GlcNAc(b1-4)GlcNAc
# In short: as §1
# [30] = target: Neu5Ac(a2-6)Gal(b1-4)GlcNAc(b1-2)Man(a1-3)[Neu5Ac(a2-6)Gal(b1-4)GlcNAc(b1-2)Man(a1-6)]Man(b1-4)GlcNAc(b1-4)[Fuc(a1-6)]GlcNAc
# In short: as §1
# [31] = target: Neu5Ac(a2-6)Gal(b1-4)GlcNAc(b1-2)Man(a1-6)Man(b1-4)GlcNAc(b1-4)GlcNAc
# In short: as §1
# [32] = target: Neu5Ac(a2-6)Gal(b1-4)GlcNAc(b1-2)Man(a1-6)[Gal(b1-4)GlcNAc(b1-2)Man(a1-3)]Man(b1-4)GlcNAc(b1-4)GlcNAc
# In short: as §1
# [33] = target: Neu5Ac(a2-6)Gal(b1-4)GlcNAc(b1-2)Man(a1-6)[GlcNAc(b1-2)Man(a1-3)]Man(b1-4)GlcNAc(b1-4)GlcNAc
# In short: as §1
# [34] = target: Neu5Ac(a2-6)Gal(b1-4)GlcNAc(b1-2)Man(a1-6)[Man(a1-3)]Man(b1-4)GlcNAc(b1-4)GlcNAc
# In short: as §1
# [35] = target: Neu5Ac(a2-6)Gal(b1-4)GlcNAc(b1-2)[Neu5Ac(a2-6)Gal(b1-4)GlcNAc(b1-4)]Man(a1-3)[GlcNAc(b1-4)][Neu5Ac(a2-6)Gal(b1-4)GlcNAc(b1-2)[Neu5Ac(a2-6)Gal(b1-4)GlcNAc(b1-6)]Man(a1-6)]Man(b1-4)GlcNAc(b1-4)GlcNAc
# In short: as §1
# [36] = target: Neu5Ac(a2-6)Gal(b1-4)GlcNAc(b1-2)[Neu5Ac(a2-6)Gal(b1-4)GlcNAc(b1-4)]Man(a1-3)[GlcNAc(b1-4)][Neu5Ac(a2-6)Gal(b1-4)GlcNAc(b1-4)Man(a1-6)]Man(b1-4)GlcNAc(b1-4)GlcNAc
# In short: as §1
# [37] = target: Neu5Ac(a2-6)Gal(b1-4)GlcNAc(b1-2)[Neu5Ac(a2-6)Gal(b1-4)GlcNAc(b1-6)]Man(a1-6)[Neu5Ac(a2-6)Gal(b1-4)GlcNAc(b1-2)Man(a1-3)][GlcNAc(b1-4)]Man(b1-4)GlcNAc(b1-4)GlcNAc
# In short: as §1
# [38] = target: Neu5Ac(a2-6)Gal(b1-4)GlcNAc(b1-3)Gal(b1-3)GlcNAc
# In short: as §1
# [39] = target: Neu5Ac(a2-6)Gal(b1-4)GlcNAc(b1-3)Gal(b1-4)GlcNAc
# In short: as §1
# [40] = target: Neu5Ac(a2-6)Gal(b1-4)GlcNAc(b1-3)Gal(b1-4)GlcNAc(b1-2)Man(a1-3)[Neu5Ac(a2-6)Gal(b1-4)GlcNAc(b1-3)Gal(b1-4)GlcNAc(b1-2)Man(a1-6)]GalNAc
# In short: as §1
# [41] = target: Neu5Ac(a2-6)Gal(b1-4)GlcNAc(b1-3)Gal(b1-4)GlcNAc(b1-3)Gal(b1-4)GlcNAc
# In short: as §1
# [42] = target: Neu5Ac(a2-6)Gal(b1-4)GlcNAc(b1-3)Gal(b1-4)GlcNAc(b1-3)Gal(b1-4)GlcNAc(b1-2)Man(a1-3)[Neu5Ac(a2-6)Gal(b1-4)GlcNAc(b1-3)Gal(b1-4)GlcNAc(b1-3)Gal(b1-4)GlcNAc(b1-2)Man(a1-6)]GalNAc
# In short: as §1
binder,measurement,setting,value
B1,glycan array binding signal (z-score),[1],-0.478
same,glycan array binding signal (z-score),[2],0.231
same,glycan array binding signal (z-score),[3],-0.02
same,glycan array binding signal (z-score),[4],-0.56
same,glycan array binding signal (z-score),[5],-1.25
same,glycan array binding signal (z-score),[6],-1.15
same,glycan array binding signal (z-score),[7],-0.632
same,glycan array binding signal (z-score),[8],1.21
same,glycan array binding signal (z-score),[9],-0.052
same,glycan array binding signal (z-score),[10],0.714
same,glycan array binding signal (z-score),[11],0.498
same,glycan array binding signal (z-score),[12],1.16
same,glycan array binding signal (z-score),[13],-0.958
same,glycan array binding signal (z-score),[14],0.62
same,glycan array binding signal (z-score),Neu5Ac(a2-3)GalNAc,-1.48
same,glycan array binding signal (z-score),[15],1.18
same,glycan array binding signal (z-score),[16],-0.34
same,glycan array binding signal (z-score),[17],-0.488
same,glycan array binding signal (z-score),[18],-0.713
same,glycan array binding signal (z-score),[19],-0.358
same,glycan array binding signal (z-score),Neu5Ac(a2-6)Gal,0.138
same,glycan array binding signal (z-score),[20],0.158
same,glycan array binding signal (z-score),Neu5Ac(a2-6)Gal(b1-4)Glc,0.327
same,glycan array binding signal (z-score),[21],-0.588
same,glycan array binding signal (z-score),[22],0.755
same,glycan array binding signal (z-score),[23],-0.121
same,glycan array binding signal (z-score),[24],-0.458
same,glycan array binding signal (z-score),[25],-1.17
same,glycan array binding signal (z-score),[26],-0.678
same,glycan array binding signal (z-score),[27],1.41
same,glycan array binding signal (z-score),[28],-0.75
same,glycan array binding signal (z-score),[29],0.351
same,glycan array binding signal (z-score),[30],-0.243
same,glycan array binding signal (z-score),[31],0.213
same,glycan array binding signal (z-score),[32],-0.801
same,glycan array binding signal (z-score),[33],-0.077
same,glycan array binding signal (z-score),[34],0.534
same,glycan array binding signal (z-score),[35],-0.147
same,glycan array binding signal (z-score),[36],-1.06
same,glycan array binding signal (z-score),[37],-0.452
same,glycan array binding signal (z-score),[38],-0.693
same,glycan array binding signal (z-score),[39],0.169
same,glycan array binding signal (z-score),[40],0.189
same,glycan array binding signal (z-score),[41],0.064
same,glycan array binding signal (z-score),[42],0.794

# As a short view, some entries already given:
binder,measurement,setting,value
B1,glycan array binding signal (z-score),[28],-0.75
same,glycan array binding signal (z-score),[29],0.351
same,glycan array binding signal (z-score),[30],-0.243
